Data on 39 compounds can be found in PubChem BioAssay AID493014 (National Center for Advancing Translational Sciences (NCATS), 2011).

This is one part of the list. Further columns of the screen follow, without active or inactive calls. The list favours compounds with an active or inconclusive main result. Words in brackets tell the shape of the fitted curve; partial curves, single points and poor fits give uncertain potencies.

The assay is described as follows: qHTS Assay to Find Inhibitors of Chronic Active B-Cell Receptor Signaling. The note with it: ABC-DLBCL IkBa-CBG/CBR reporter, luminescence ratio (green luciferase fused to IkBa over red control in TMD8 lymphoma cells), 4 h. The method in brief:
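TMD8 human ABC-DLBCL cells with doxycycline-inducible IκBα–green luciferase fusion and unfused red luciferase, in 0.5% FBS medium; compounds up to 46 uM, 4 h at 37C. Green/red luminescence ratio, filter-overlap corrected, fitted to concentration-response curves.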

Where [1] appears, read: measured here: CBR red luminescence, cell number.
Where [2] appears, read: measured here: IkBa-CBG green luminescence.

For orientation: AC50 means the concentration at which the activity in the assay is half-maximal. Turning to `Cc1nnc(SCC2=C(C(=O)O)N3C(=O)C(NC(=O)C(C)n4nc(C(F)(F)F)cc4C)C3SC2)s1` (centres undefined), the half-maximal activity concentration (AC50) under setting [1] is 35.5 µM [falling, single point]. On the same count and under the same terms, the same measure for `CCOc1ccc(NC(=O)CSc2nnc(-c3ccccc3Cl)n2Cc2ccco2)cc1`: 35.5 µM [falling, single point]. With `Cc1nc2c(sc3nc4c(cc32)COC(C)(C)C4)c(=O)n1CC(=O)NCc1ccco1`, the AC50 was 35.5 µM [rising, single point] under setting [1] and 15.8 µM [falling, single point] under setting [2].

Take `CC(Sc1nnc2c(n1)[nH]c1ccccc12)C(=O)N(C)C1CCCCC1` (centres undefined): the AC50 under setting [1] is 17.8 µM [falling, single point]. `O=C(c1cccs1)N1N=C(c2ccccc2)CC1c1ccccc1O` (centres undefined): the concentration at half-maximal activity (AC50) under setting [1] is 5.62 µM [rising, partial curve, poor fit]. As for `COc1cc(/C=C/C(=O)c2ccc([N+](=O)[O-])o2)ccc1O`, the AC50 was 7.31 µM [rising, single point] under setting [1] and 9.2 µM [falling, single point] under setting [2]. Turning to `Cc1cc2nc(-c3ccc(SCC(=O)Nc4ccc5c(c4)OCCO5)nc3)[nH]c2cc1C`, under setting [1], the AC50 was 2.24 µM [falling, partial curve]. As for `COc1ccc(C(=O)CNc2ccc(C)cc2C)cc1`, the concentration at half-maximal activity (AC50) under setting [1] is 12.6 µM [falling, partial curve]. `Cc1nn(C)c(Cl)c1NC(=O)OCc1ccc(F)cc1`: the AC50 under setting [1] is 14.1 µM [rising, single point]. `COc1ccc(-c2nc(CN3CCN(Cc4cccc(Cl)c4)CC3)c(C)o2)cc1`: under setting [1], the AC50 is 6.31 µM [rising, full curve, poor fit].

For the compound `O=C(c1ccccc1)c1ccc(OCC(O)CNCc2ccc(F)cc2)cc1` (centres undefined), under setting [1], the AC50 was 35.5 µM [falling, single point]. In the case of `CCC(=O)NCCC(c1ccco1)c1ccccc1OC` (centres undefined), the AC50 under setting [2] is 18.4 µM [rising, single point]. Consider `O=C(O)CCNS(=O)(=O)c1ccc2c(c1)Cc1ccccc1-2`, for which the half-maximal activity concentration (AC50) under setting [1] is 1.78 µM [falling, full curve].

Take `O=C(CCS(=O)(=O)c1cccc2nonc12)NCCc1ccccc1`: the AC50 under setting [1] is 29.1 µM [rising, single point]. Still for that read-out and setting: for `Clc1ccc(-c2cc(-c3ccccc3)on2)cc1` the value was 0.13 µM [rising, full curve, poor fit]. Turning to `COc1ccccc1/C=C/C(=O)NC(=S)Nc1ccc(S(=O)(=O)N(C)c2ccccc2)cc1`, the AC50 under setting [1] was 3.16 µM [falling, full curve].

`O=C(Oc1cccc2cccnc12)c1ccc(N2C(=O)C3C4CCC(C4)C3C2=O)cc1` (centres undefined): the concentration at half-maximal activity (AC50) under setting [1] was 3.66 µM [falling, full curve] and the half-maximal activity concentration (AC50) under setting [2] is 8.2 µM [falling, single point]. As to `CNCc1ccccc1Sc1cccc2ccccc12`, the AC50 under setting [1] is 29.1 µM [falling, single point].

With `Cc1cc(C)cc(OC(=O)CS(=O)c2ccc(C(F)(F)F)cc2[N+](=O)[O-])c1` (centres undefined), the AC50 under setting [1] was 7.31 µM [falling, single point]. Consider `CC(NC(=O)c1cc2ccccc2oc1=O)c1ccc(O)cc1` (centres undefined), for which the concentration at half-maximal activity (AC50) under setting [1] is 0.794 µM [rising, partial curve, poor fit]. For `CCSc1nc2ccccc2n1Cc1cccc([N+](=O)[O-])c1`, the AC50 under setting [1] is 35.5 µM [rising, partial curve, poor fit]. `O=C(Cc1ccc(S(=O)(=O)N2CCOCC2)s1)NNC(=O)c1ccccc1Cl`: under setting [1], the AC50 is 20.6 µM [falling, single point].

Take `COc1ccccc1N1CCN(CC(=O)Nc2ccc3c(c2)OCCO3)CC1`: under setting [1], the concentration at half-maximal activity (AC50) was 35.5 µM [falling, single point]. Same read-out and setting: the same measure for `O=C(CCCN1C(=O)/C(=C\c2cccs2)SC1=S)NNC(=O)c1cccnc1`: 3.16 µM [falling, full curve, poor fit]; for `COc1ccc(OC)c(S(=O)(=O)NCC(c2ccc3c(c2)OCO3)N2CCOCC2)c1` (centres undefined): 32.6 µM [falling, partial curve, poor fit]; for `O=C(N/N=C/c1ccc(C(F)(F)F)cc1)c1ccc(O)cc1`: 0.447 µM [falling, full curve, poor fit]. As to `CCOC(=O)c1ccc(NC(=O)CNNC(=O)COc2ccccc2C)cc1`, under setting [1], the concentration at half-maximal activity (AC50) was 2.59 µM [falling, partial curve].

With `Cc1cc(C)c2c(CC(=O)Nc3ccc(Cl)cn3)coc2c1`, under setting [1], the AC50 is 32.6 µM [rising, single point]. On to `O=C(CC(c1ccccc1)c1ccccc1O)NCc1ccccc1Cl` (centres undefined), for which, under setting [1], the AC50 is 16.4 µM [falling, single point]. Consider `COc1ccc(NC(=O)C/C(C)=N/NC(=O)c2cnccn2)c(OC)c1`, for which the AC50 under setting [1] was 8.91 µM [falling, partial curve, poor fit]. For the compound `O=C(O)C1CCCN1c1nc(-c2ccc(Cl)c(Cl)c2)cc(C(F)(F)F)n1` (centres undefined), the AC50 under setting [1] is 29.1 µM [falling, single point]. On the same count and under the same terms, the same measure for `O=C(NCCNc1cc(Cl)ccc1[N+](=O)[O-])c1ccco1`: 0.58 µM [rising, partial curve, poor fit]. As to `Cc1c(C)n(C)c2ccc(C(=O)Nc3cccc4ccccc34)cc12`, the AC50 under setting [1] is 1.41 µM [falling, full curve, poor fit]. In the case of `CCN(c1ccc(NC(=O)CSc2nnc3nc(C)cc(C)n23)cc1)C(C)C`, under setting [1], the AC50 was 25.9 µM [rising, single point]. Take `COc1cc(C(=O)OCC#N)ccc1OCc1c(C)noc1C`: the concentration at half-maximal activity (AC50) is, setting by setting: under setting [1], 35.5 µM [rising, single point]; under setting [2], 35.5 µM [falling, single point].

As to `CC(NC(=O)Cn1ncc(Cl)c(Cl)c1=O)C12CC3CC(CC(C3)C1)C2` (centres undefined), the AC50 is, setting by setting: under setting [1], 8.2 µM [falling, partial curve]; under setting [2], 29.1 µM [rising, partial curve, poor fit]. For the compound `Cc1csc(NC(=O)CSc2ccccc2F)n1`, under setting [1], the AC50 was 28.2 µM [falling, single point]. On to `COc1ccccc1NS(=O)(=O)c1cccc2nsnc12`, for which the half-maximal activity concentration (AC50) under setting [1] was 11.2 µM [falling, partial curve, poor fit]. Consider `CCOC(=O)c1c(C)[nH]c(C)c1C(=O)COC(=O)c1ccc(S(=O)(=O)C(F)F)cc1`, for which, under setting [1], the concentration at half-maximal activity (AC50) is 6.51 µM [rising, partial curve, poor fit].
